Measurements reported in PubChem BioAssay AID602313 (National Center for Advancing Translational Sciences (NCATS), 2012).
Among all 390,000 compounds or so, about 760 (0.19%) were called active. Inconclusive results, whose numbers are uncertain, are shown with a selection of clear calls. The call rests on the fitted dose curve; in most records, active means well fitted inhibition curve with a large enough effect; inconclusive means small, poorly fitted or top-dose-only effect; inactive means flat fitted curve, though single readings scatter. Potencies beside an inconclusive call are fits to weak or partial responses and may not hold up.

Experiment: qHTS for Inhibitors of Vif-A3F Interactions: qHTS; further: nearly all actives have a fitted effect of over 65% in size
Conditions: HeLa A3F-eYFP + Vif (tagged APOBEC3F with the HIV-1 protein that degrades it), YFP fluorescence increase; series mostly up to 46.1 µM
In short: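 Fluorescence increase (Ex 488/Em 500-530) after overnight compound treatment at 37 deg C flags inhibition of Vif-driven A3F-eYFP loss in stable HeLa A3F-eYFP/Vif cells seeded overnight beforehand.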
Potency means the concentration at half of the fitted maximal effect.

| SMILES | Potency |
| --- | --- |
| O=c1oc2ccccc2c2oc3cc(O)c(O)cc3c12 | inconclusive: 28.2 µM [inhibitor, single point] |
| Cc1cc(NC(=O)CSc2ccc(-c3ccc(F)cc3)nn2)no1 | inactive |
| O=C(Nc1cc([N+](=O)[O-])ccc1N1CCCC1)c1ccccc1 | inconclusive: 2.51 µM [inhibitor, full curve, poor fit] |
| O=C(OCC(=O)c1cccc2ccccc12)c1ccc(CO)cc1 | inconclusive: 28.2 µM [inhibitor, single point] |
| CCC(CN(C)C)Oc1cc(NCc2ccccc2)c2ncn(C(C)C)c2c1 (stereo not given) | inconclusive: 28.2 µM [inhibitor, single point] |
| CCC(O)CNC(=O)NC(=C(Cl)Cl)c1ccc(C)c(F)c1 (stereo not given) | inactive |
| CCCOC(=O)C1[C@H]2C(=O)N(CC3CCCO3)C[C@]23C=C[C@H]1O3 (stereo not given in full) | inactive |
| COc1ccc(N2CCN(C(CNC(=O)OCc3ccccc3)c3ccco3)CC2)cc1 (stereo not given) | inactive |
| Cc1[nH]c(N=Nc2ccccc2)nc1N=Nc1ccccc1 | inactive |
| COC(=O)C1=C(c2ccccc2)c2ccccc2S(=O)(=O)N1CC(=O)Nc1cccc(C(C)=O)c1 | inconclusive: 3.16 µM [inhibitor, single point] |
| Cc1ccc(NC(=S)Nc2cc(C(=O)O)ccc2N2CC3CC(C2)c2cccc(=O)n2C3)cc1C (stereo not given) | inconclusive: 22.4 µM [inhibitor, single point] |
| Cc1ccccc1-c1n[nH]c(=S)n1/N=C/C=C/c1ccco1 | inconclusive: 22.4 µM [inhibitor, single point] |
| CN(C)C(=O)CSC1c2ccccc2C(=O)N1c1ccccc1 (stereo not given) | inconclusive: 35.5 µM [inhibitor, single point] |
| Oc1ccccc1C1Nc2cccc3cccc(c23)N1 | inactive |
| O=C(NCc1ccco1)c1cc(-c2ccccc2)nc2ccccc12 | inconclusive: 10 µM [inhibitor, partial curve, poor fit] |
| C=CCOc1ccc(/C=N/Nc2ccccn2)cc1OC | inconclusive: 6.31 µM [inhibitor, single point] |
| C/C(=N\Nc1ccccn1)c1ccc(OC(F)F)cc1 | inconclusive: 0.316 µM [inhibitor, full curve, poor fit] |
| CCCCCCCCCc1nc2sc3c(c2c(=O)n1NC(=O)c1ccc([N+](=O)[O-])cc1)CC(C)(C)OC3 | inconclusive: 20 µM [inhibitor, partial curve, poor fit] |
| CCOc1ccc(-c2nnn(CC#N)n2)cc1OC | inactive |
| CC(=O)Nc1sc2c(c1C#N)CCN(Cc1ccccc1)C2 | inactive |
| O=C(NC(=S)Nc1nc(-c2ccccc2)cs1)c1cccnc1 | inconclusive: 35.5 µM [inhibitor, single point] |
| CCc1cccc(NC(=O)CSc2ncc3c(n2)-c2ccc(Cl)cc2N(Cc2ccccc2)S3(=O)=O)c1 | inactive |
| Cc1cc(Br)ccc1NC(=S)NC1CCCC1 | inconclusive: 22.4 µM [inhibitor, single point] |
| COc1ccccc1/C=C/C(=O)c1ccc(NC(C)=O)cc1 | inconclusive: 5.01 µM [inhibitor, partial curve, poor fit] |

Ordered by number of heavy atoms (rising): 3 of the compounds above

| SMILES | Potency |
| --- | --- |
| Cc1cc(Br)ccc1NC(=S)NC1CCCC1 | inconclusive: 22.4 µM [inhibitor, single point] |
| CCCOC(=O)C1[C@H]2C(=O)N(CC3CCCO3)C[C@]23C=C[C@H]1O3 (stereo not given in full) | inactive |
| O=C(OCC(=O)c1cccc2ccccc12)c1ccc(CO)cc1 | inconclusive: 28.2 µM [inhibitor, single point] |

(continued)

| SMILES | Potency |
| --- | --- |
| O=C(NCCCO)C(=O)NCC(c1ccc2c(c1)OCO2)N1CCOCC1 (stereo not given) | inactive |
| COc1cc([N+](=O)[O-])cc(/C=N/NC(=O)c2cncc(Br)c2)c1O | inconclusive: 3.16 µM [inhibitor, single point] |
| CC(=O)Nc1ccc(C(=O)OCC(=O)c2ccc(S(=O)(=O)N3CCCCC3)cc2)cc1 | inconclusive: 6.31 µM [inhibitor, partial curve, poor fit] |
| COc1ccc(C(=O)N/N=C/c2cc(Br)ccc2O)cc1OC | active: 11.2 µM |
| Cc1cc(-c2ccccc2)nc(N/N=C/c2ccccc2)n1 | inconclusive: 35.5 µM [inhibitor, single point] |
| c1ccc(-c2nnc3sc(-c4cc5ccccc5o4)nn23)cc1 | inactive |
| CCn1nc(C(=O)OCC(=O)c2ccc3c(c2)OCCO3)c2ccccc2c1=O | inactive |
| Cn1c(=O)n(C)c2cc(NC(=O)CCl)ccc21 | inactive |
| Cc1ncsc1CCC(=O)N1CCCC(Nc2ccc(F)c(F)c2)C1 (stereo not given) | inconclusive: 11.2 µM [inhibitor, partial curve, poor fit] |
| NC(=S)NNC(=O)c1cc(C(F)(F)F)cc(C(F)(F)F)c1 | inconclusive: 14.1 µM [inhibitor, partial curve, poor fit] |
| COc1cc(CC(=O)N(c2ccccc2)c2nc(C)cs2)cc(OC)c1OC | inconclusive: 6.31 µM [inhibitor, single point] |
| CC(C)NC(=S)N/N=C1\CCCc2ccccc21 | inconclusive: 22.4 µM [inhibitor, single point] |
| NNC(=O)c1cc2c(N3CCC(Cc4ccccc4)CC3)ncnc2s1 | inconclusive: 35.5 µM [inhibitor, partial curve, poor fit] |
| CCc1noc(-c2ccc(NCc3ccccc3)c([N+](=O)[O-])c2)n1 | inconclusive: 31.6 µM [inhibitor, single point] |
| C=CCN=c1scc(-c2ccc(F)cc2)n1/N=C/c1ccccn1 | inconclusive: 11.2 µM [inhibitor, partial curve] |
| COc1cc(-c2cc(C(=O)Nc3ccc(O)cc3)c3ccccc3n2)cc(OC)c1OC | inactive |
| NC(=S)Nc1nc2ccccc2s1 | inconclusive: 5.62 µM [inhibitor, single point] |
| COc1ccc(OC(=O)c2cccc([N+](=O)[O-])c2)c(C(=O)/C=C/c2cccs2)c1 | inactive |
| N#Cc1c(NC(=O)c2ccccc2Cl)n(Cc2ccccc2)c2nc3ccccc3nc12 | inconclusive: 35.5 µM [inhibitor, single point] |
| O=C(Nc1ccccc1)Nn1cnnc1 | inactive |
| C/C(CCC(C)C)=N\NC(=S)NCc1ccccc1 | inconclusive: 3.55 µM [inhibitor, full curve, poor fit] |
| Cc1sc(NC(=O)c2ccccc2)c(C(=O)NCCN(C)C)c1C | inconclusive: 35.5 µM [inhibitor, partial curve, poor fit] |
| CCCCCCCCC1CC(C(=O)Nc2ccccc2)C(=O)O1 (stereo not given) | inconclusive: 35.5 µM [inhibitor, single point] |
| CCc1ccc(NC2=NCC(c3ccccc3)S2)cc1 (stereo not given) | inconclusive: 11.2 µM [inhibitor, partial curve, poor fit] |

Filtered by structure: the entries above containing an aryl thioether with sulfur outside any ring (two)

| SMILES | Potency |
| --- | --- |
| Cc1cc(NC(=O)CSc2ccc(-c3ccc(F)cc3)nn2)no1 | inactive |
| CCc1cccc(NC(=O)CSc2ncc3c(n2)-c2ccc(Cl)cc2N(Cc2ccccc2)S3(=O)=O)c1 | inactive |

Following part.

| SMILES | Potency |
| --- | --- |
| NC(=S)Nc1cc(Cl)cc(Cl)c1 | inconclusive: 12.6 µM [inhibitor, partial curve, poor fit] |
| COc1ccc2c(c1OC)C(=O)N1C2SC(C)(C)[C@H]1C(=O)NC1CCCC1 (stereo not given in full) | inactive |
| O=C(/C=C/c1ccccc1)CCN1CCCCC1 | inconclusive: 5.62 µM [inhibitor, single point] |
| Cc1ccc(S(=O)(=O)CC(O)COc2ccc(F)cc2Cl)c(C)c1 (stereo not given) | inconclusive: 35.5 µM [inhibitor, single point] |
| O=C(N=Nc1c(O)[nH]c2ccc(Br)cc12)c1cc(-c2cccs2)nc2ccccc12 | inconclusive: 3.98 µM [inhibitor, full curve, poor fit] |
| NCc1nc(-c2ccc(Cl)cc2)no1 | inactive |
| O=C(c1ccccc1)C1C(=O)c2ccccc2C1=O | active: 35.5 µM |
| O=[N+]([O-])c1ccc(/C=N/NC(=S)Nc2ccccc2F)o1 | inconclusive: 35.5 µM [inhibitor, single point] |
| CCCC(C(=O)Nc1ccc(S(=O)(=O)Nc2nccs2)cc1)c1ccccc1 (stereo not given) | inconclusive: 6.31 µM [inhibitor, single point] |
| Cc1cccc(NC(=O)c2ccc([N+](=O)[O-])s2)n1 | inactive |
| CC(=O)Oc1ccc(/C=N/NC(=S)Nc2ccccc2)cc1 | inconclusive: 6.31 µM [inhibitor, single point] |
| Cc1ccc(NC(=O)CSc2nc3nc(C)c(Br)cc3[nH]2)cc1F | inconclusive: 35.5 µM [inhibitor, single point] |
| Cc1ccc(-c2cc([C@H]3[C@@H]4C=CCC[C@@]4(C)C(=O)N3Cc3ccccc3)ccc2F)cc1 | inconclusive: 28.2 µM [inhibitor, single point] |
| CN1C2CCC1/C(=C\c1ccc(F)cc1)C(=O)/C2=C/c1ccc(F)cc1 | inconclusive: 7.08 µM [inhibitor, full curve] |
| CCn1c(SCC(=O)Nc2ccc(C(C)=O)cc2)nc2nc3c(cc2c1=O)COC(C)(C)C3 | inconclusive: 5.62 µM [inhibitor, single point] |
| CC1SC(=S)N(c2ccc(N(C)C)cc2)C1=O (stereo not given) | inconclusive: 3.98 µM [inhibitor, single point] |
| c1ccc(OCc2nn3c(Cn4nnc5ccccc54)nnc3s2)cc1 | inactive |
| O=S1(=O)N=C(N/N=C/c2ccc(Br)o2)c2ccccc21 | inconclusive: 25.1 µM [inhibitor, single point] |
| Cc1cccc(-n2c(O)c(C=Nc3ccccc3N)c(=O)[nH]c2=O)c1 | inactive |
| Cc1cc(C(=O)CSc2nc3ccc(Cl)cc3[nH]2)c(C)n1Cc1ccco1 | inconclusive: 11.2 µM [inhibitor, partial curve, poor fit] |
| Cc1ccc(CSc2nc3cccnc3n2Cc2ccc(C(=O)NCCc3cccs3)cc2)cc1 | inconclusive: 35.5 µM [inhibitor, single point] |
| COc1ccc(N2CCN(Cc3nc4scc(-c5cccs5)c4c(=O)[nH]3)CC2)cc1 | inconclusive: 35.5 µM [inhibitor, single point] |

Not a retest: an excerpt of the list.

| SMILES | Potency |
| --- | --- |
| CCCCCCCCC1CC(C(=O)Nc2ccccc2)C(=O)O1 (stereo not given) | inconclusive: 35.5 µM [inhibitor, single point] |
| CCc1ccc(NC2=NCC(c3ccccc3)S2)cc1 (stereo not given) | inconclusive: 11.2 µM [inhibitor, partial curve, poor fit] |
